Screen size: about 400,000 compounds; about 13,000 (3.2%) were called active. Inconclusive results, whose numbers are uncertain, are shown with a selection of clear calls. The call rests on the fitted dose curve; in most records, active means well fitted cell-killing curve with a large enough effect; inconclusive means small, poorly fitted or top-dose-only effect, or effect the other way; inactive means flat fitted curve, though single readings scatter. Potencies of inconclusive entries are doubtful fits and often do not repeat.
Experiment: qHTS assay for MDR1-selective chemotherapeutics: Primary screen using the drug-selected MDR subline cells KB-V1; further: nearly all actives have a fitted effect of over 60% in size
Conditions: KB-V1 MDR cells viability, CellTiter-Glo, 72 h; activity change, negative = cytotoxicity: at 46.1 µM (top of the series)
Summary of the method: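 Potencies derive from concentration-effect curves fitted to normalized luminescence (CellTiter-Glo) of KB-V1 cells treated for 72 h at 37 degrees C in phenol-red-free DMEM containing 10% FBS.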
On the % scale 0 is the no-effect control and ±100 the full control effect; potency means the concentration at half of the fitted maximal effect.

Row | Compound | Potency | activity change, negative = cytotoxicity
1 | COc1cc2c(cc1OC)C(C)N(C(=O)c1cc3c(s1)-c1ccccc1OC3)CC2 (centres undefined) | inconclusive: 29.1 µM [cytotoxic, single point] | 
2 | Cc1cc(=O)oc2cc(Oc3ccc([N+](=O)[O-])cc3[N+](=O)[O-])ccc12 | inconclusive: 29.1 µM [cytotoxic, single point] | 
3 | Cc1c(N2C(=O)c3ccccc3C2=O)c(=O)n(-c2ccccc2)n1C | inconclusive: 16.4 µM [rising, single point] | 
4 | COc1ccccc1NC(=O)CN1C(=O)c2cccc3cccc1c23 | inconclusive: 2.31 µM [cytotoxic, full curve, poor fit] | 
5 | Cc1cccc(-c2c3c(=O)n(C)c(=O)n(C)c3cn2C2CCCCC2)c1 | active: 16.4 µM | 
6 | CC(=O)N1c2ccccc2C2(O)N=C(C)SC12 (centres undefined) | inconclusive: 20.6 µM [rising, single point] | 
7 | Nc1nc(Br)c2c(F)cccc2c1-c1ccc(F)cc1 | inactive | 
8 | Cn1cc(C(C[N+](=O)[O-])c2ccccc2)c2ccccc21 (centres undefined) | inconclusive: 18.4 µM [cytotoxic, single point] | 
9 | CCOc1ccc2ccccc2c1C(=O)N[C@@H]1C(=O)N2[C@@H]1SC(C)(C)[C@@H]2C(=O)O | inactive | 
10 | N#C/C(=C/c1cccn1-c1cccc(C(=O)O)c1)c1ccc(F)cc1 | inactive | 
11 | COc1ccc2c(c1)C1NC(=S)NC(C)(O2)C1C(=O)Nc1ccc(Cl)cc1 (centres undefined) | inconclusive: 25.9 µM [cytotoxic, single point] | 
12 | Cc1ccc(Cl)cc1N1CCN(S(=O)(=O)c2ccc3[nH]c4c(c3c2)CCCC4)CC1 | inactive | 
13 | COc1ccc(C2=NN(C(=O)CCC(=O)O)C(c3ccc([N+](=O)[O-])cc3)C2)cc1 (centres undefined) | inconclusive: 29.1 µM [rising, single point] | 
14 | COc1ccc(CCc2nnc(CCC(=O)NCCc3ncccc3C)o2)cc1 | inconclusive: 2.59 µM [cytotoxic, partial curve, poor fit] | 
15 | O=C(NC(=S)NC1CCCC1)c1ccccc1 | inactive | 
16 | COc1ccc(C(C)=O)cc1COC(=O)c1ccc(N)c([N+](=O)[O-])c1 | inconclusive: 29.1 µM [cytotoxic, single point] | 
17 | CCOC(=O)c1cc(OC(=O)c2ccc(Cl)cc2)n(-c2ccccc2)n1 | inactive | 
18 | c1ccc2c(c1)ncn2CCCOc1ccc2c(c1)CCC2 | active: 11.6 µM | 
19 | Cc1ccc(SCc2ccc(C(=O)N3CCCCC3)cc2)cc1 | inconclusive: 29.1 µM [cytotoxic, single point] | 
20 | CC1CN(c2nc3ccccc3cc2-c2ccccc2)CC(C)O1 (centres undefined) | inactive | 
21 | Cc1cc2ccccn2c1C(=O)c1nc(NCc2ccccc2)ncc1Cl | inconclusive: 18.4 µM [cytotoxic, single point] | 
22 | CCCNC(=O)c1cc(C2CCCCN2S(C)(=O)=O)on1 (centres undefined) | inactive | 
23 | COc1ccccc1NC(=O)N1CCN(c2ccnc3cc(Cl)ccc23)CC1 | inactive | 
24 | CCN(CC(=O)Nc1cc(C)on1)CC(=O)Nc1ccccc1C(F)(F)F | active: 18.4 µM | 
25 | CCOC(=O)c1c(NC(=O)N/N=C/c2ccccc2OCC)sc(C(C)=O)c1C | inconclusive: 32.6 µM [cytotoxic, single point] | 

Row | Compound | Potency | activity change, negative = cytotoxicity
26 | COc1ccc(-c2noc(N3CCCC(C(=O)Nc4ccc(F)cc4F)C3)n2)cc1 (centres undefined) | inconclusive: 16.4 µM [rising, single point] | 
27 | O=c1[nH]ncc(NCCc2ccccc2)c1Cl | active: 8.2 µM | 
28 | CCOC(=O)N1CCN(C(=O)c2ccc(S(=O)(=O)Nc3ccc(C)cc3)cc2)CC1 | active: 10.3 µM | 
29 | N#Cc1c(N)nc(Sc2ccc(Cl)cc2)c(C#N)c1-c1ccccc1Cl | active: 23.1 µM | 
30 | Cn1cccc1/C=C1\CCc2ccccc2C1=O | inconclusive: 16.4 µM [cytotoxic, partial curve, poor fit] | 
31 | COc1ccc(CN2COc3ccc4c(-c5ccc(OC)cc5)cc(=O)oc4c3C2)cc1 | inactive | 
32 | CC(=O)Nc1ccc(Nc2ccccc2)cc1 | inactive | 
33 | COc1ccc(NC(=O)C(=O)NCC2CCCN2S(=O)(=O)c2ccc(C)cc2)cc1 (centres undefined) | active: 0.231 µM | 
34 | C=CCCC(=O)N1CCC(CCC(=O)NC2CC2)CC1 | inactive | 
35 | COc1ccc(CNC(=O)Cn2ncn3nc(-c4cccs4)cc3c2=O)cc1 | inconclusive: 29.1 µM [cytotoxic, single point] | 
36 | Cc1ccc(N(CC(=O)NCc2ccc(F)cc2)C(=O)c2snc(C(N)=O)c2N)cc1C | inconclusive: 4.61 µM [cytotoxic, partial curve] | 
37 | CCOc1ccc(CN2C(=O)CC(=O)N(S(=O)(=O)c3ccc(OCC)cc3)C2=O)cc1 |  | inconclusive: 33%
38 | Cc1ccc(C)c(N2CCN(CCCNC(=O)Cn3ncc4c([nH]c5ccccc54)c3=O)CC2)c1 | inconclusive: 25.9 µM [rising, partial curve, poor fit] | 
39 | O=C1/C(=C\c2cccc(O)c2O)SC(=S)N1Cc1ccccc1 | inconclusive: 5.8 µM [cytotoxic, full curve, poor fit] | 
40 | O=C(NCC(c1cccs1)N1CCOCC1)c1cc2ccccc2oc1=O (centres undefined) | inconclusive: 29.1 µM [cytotoxic, single point] | 
41 | CCc1ccc(NC(=O)c2noc3c2CCc2ccccc2-3)cc1 | inconclusive: 25.9 µM [cytotoxic, single point] | 
42 | CCC1CCCCN1C(=O)c1nn(-c2ccc(C)cc2)c(=O)c2c1c1ccccc1n2C (centres undefined) | inconclusive: 29.1 µM [rising, single point] | 
43 | O=S(=O)(Nc1cc(Cl)ccc1N1CCCCC1)c1cccs1 | inconclusive: 23.1 µM [cytotoxic, single point] | 
44 | COc1ccc(S(=O)(=O)N/N=c2\oc3c(OC)cccc3cc2S(=O)(=O)c2ccc(C)cc2)cc1OC | inactive | 
45 | O=C(Nc1nnc(COc2ccc(Cl)cc2)s1)c1cccs1 | inconclusive: 29.1 µM [rising, single point] | 
46 | CC(=O)c1sc(N)c(C(=O)OC(C)C)c1C | inconclusive: 16.4 µM [cytotoxic, partial curve] | 
47 | O=C(NCCC(=O)N1CCN(c2ccccc2O)CC1)c1ccc(Br)cc1 | inactive | 
48 | CCOc1ccc(C(=O)Nc2ccc(S(=O)(=O)N3CCCCC3c3cccnc3)cc2)cc1 (centres undefined) | inactive | 
49 | COc1ccc(Nc2cc(Nc3cc(OC)c(OC)c(OC)c3)ncn2)cc1 | inconclusive: 13 µM [cytotoxic, partial curve, poor fit] | 
50 | NS(=O)(=O)c1ccc(N/N=C2/CCCCC2C2CCCCC2)c([N+](=O)[O-])c1 (centres undefined) | inactive | 

Of the compounds above, these have a Cl atom.
Row | Compound | Potency | activity change, negative = cytotoxicity
11 | COc1ccc2c(c1)C1NC(=S)NC(C)(O2)C1C(=O)Nc1ccc(Cl)cc1 (centres undefined) | inconclusive: 25.9 µM [cytotoxic, single point] | 
12 | Cc1ccc(Cl)cc1N1CCN(S(=O)(=O)c2ccc3[nH]c4c(c3c2)CCCC4)CC1 | inactive | 
17 | CCOC(=O)c1cc(OC(=O)c2ccc(Cl)cc2)n(-c2ccccc2)n1 | inactive | 
21 | Cc1cc2ccccn2c1C(=O)c1nc(NCc2ccccc2)ncc1Cl | inconclusive: 18.4 µM [cytotoxic, single point] | 
23 | COc1ccccc1NC(=O)N1CCN(c2ccnc3cc(Cl)ccc23)CC1 | inactive | 
27 | O=c1[nH]ncc(NCCc2ccccc2)c1Cl | active: 8.2 µM | 
29 | N#Cc1c(N)nc(Sc2ccc(Cl)cc2)c(C#N)c1-c1ccccc1Cl | active: 23.1 µM | 
43 | O=S(=O)(Nc1cc(Cl)ccc1N1CCCCC1)c1cccs1 | inconclusive: 23.1 µM [cytotoxic, single point] | 
45 | O=C(Nc1nnc(COc2ccc(Cl)cc2)s1)c1cccs1 | inconclusive: 29.1 µM [rising, single point] | 

Look-ups from the list:
In Potency, Cc1ccc(Cl)cc1N1CCN(S(=O)(=O)c2ccc3[nH]c4c(c3c2)CCCC4)CC1 is listed with inactive
In Potency, N#Cc1c(N)nc(Sc2ccc(Cl)cc2)c(C#N)c1-c1ccccc1Cl is listed with active: 23.1 µM

Remaining list, next part

Row | Compound | Potency | activity change, negative = cytotoxicity
51 | COc1cc(SC#N)ccc1N=Cc1c(C)[nH]n(-c2ccc(C)cc2)c1=O | inconclusive: 25.9 µM [cytotoxic, single point] | 
52 | O=C(Nc1ccc(NC(=O)C2CC2)nc1)c1cnccn1 | inactive | 
53 | CN1CCC(N(C)C(=O)/C(C#N)=C/c2ccccc2)CC1 | inconclusive: 20.6 µM [rising, single point] | 
54 | Cc1ccc(OCC(=O)Nc2ccc(O)c(-c3nc4ccccc4o3)c2)cc1 | inconclusive: 16.4 µM [cytotoxic, single point] | 
55 | CN(C)c1cccc(N(C)C)c1CNC(=O)NC(=O)c1c(F)cccc1F | inconclusive: 6.51 µM [cytotoxic, full curve] | 
56 | CCOC(=O)CSc1nn(-c2ccccc2)c(=S)s1 | inactive | 
57 | COc1ccc2[nH]c(=O)c(CN(Cc3ccc4c(c3)OCO4)C(C)=O)cc2c1 | inconclusive: 29.1 µM [rising, partial curve, poor fit] | 
58 | Cc1ccc(Nc2cc(C)nc3ncnn23)c(Cl)c1 | inactive | 
59 | CCOC(=O)C1CCCN(C(=O)CCn2nc(-c3ccccc3)ccc2=O)C1 (centres undefined) | inconclusive: 20.6 µM [cytotoxic, partial curve] | 
60 | CCC(C)NC(=O)[C@@H]1CCCN1C(=O)C1CCN(S(=O)(=O)c2ccc(C)cc2)CC1 (some centres undefined) | inactive | 
61 | O=C(COc1ccccc1Cl)Nc1cnn(Cc2ccccc2)c1 | inconclusive: 23.1 µM [cytotoxic, single point] | 
62 | O=C(Nc1c(-c2ccccc2)nc2ccccn12)c1ccc(Br)cc1 | inactive | 
63 | CCN1CCN(C(=O)/C=C/c2ccc(C(C)C)cc2)CC1 | inactive | 
64 | O=C(Nc1cccc([S+](=O)([O-])Nc2ccccc2F)c1)c1ccccc1 | inactive | 
65 | Cc1cc(C)cc(-n2ncc3c2CCCC3NC(=O)c2ccccc2)c1 (centres undefined) | inconclusive: 25.9 µM [cytotoxic, partial curve, poor fit] | 
66 | O=C1CC(C(=O)Nc2ccc(Cl)c(Cl)c2)S/C(=N\N=C\c2ccco2)N1 (centres undefined) | inconclusive: 1.84 µM [rising, full curve] | 
67 | CCN(CC)C(=O)CSc1nc2ccccc2c(=O)n1CC | inactive | 
68 | COc1ccc(NC(=O)C(=O)NCCc2csc(-c3ccc(Cl)cc3)n2)cc1 | inconclusive: 3.66 µM [rising, full curve, poor fit] | 
69 | C[C@@H]1CN([C@@H](C)CO)C(=O)c2cc(NC(=O)C3CCCCC3)ccc2O[C@@H](C)CCCCO[C@H]1CN(C)S(=O)(=O)c1ccc(Cl)cc1 | inactive | 
70 | COc1cccc2c1Oc1nc(-c3ccccc3)nc(SCC(=O)N3CCCCC3)c1C2 | inactive | 
71 | O=C(O)C1CC(O)CN1C(=S)Nc1ccccc1 (centres undefined) | inactive | 
72 | COc1ccc(CN2COc3ccc4c(C)cc(=O)oc4c3C2)cc1 | inconclusive: 7.31 µM [cytotoxic, partial curve] | 
73 | Cn1c(=O)n(C)c2cc(N3CCCCC3)c(NC(=O)c3ccccc3)cc21 |  | inconclusive: -14.9%
74 | Cn1c(=O)c2c(SCC(=O)N3CCN(c4ccccc4)CC3)nc(C3CC3)nc2n(C)c1=O | inactive | 
